Results as given in article doi:10.1101/2022.09.09.507138.
Results are given in words; binding and its absence hold for the method and conditions named. In cells and extracts the contact can be indirect. Some binding calls cover weakened binding; strength is not graded here. For some of these results: Tags and fused reporters may be left off the sequences shown.

By UniProt entry, the sequences of proteins in these tests, tags left out.
UniProt O35885: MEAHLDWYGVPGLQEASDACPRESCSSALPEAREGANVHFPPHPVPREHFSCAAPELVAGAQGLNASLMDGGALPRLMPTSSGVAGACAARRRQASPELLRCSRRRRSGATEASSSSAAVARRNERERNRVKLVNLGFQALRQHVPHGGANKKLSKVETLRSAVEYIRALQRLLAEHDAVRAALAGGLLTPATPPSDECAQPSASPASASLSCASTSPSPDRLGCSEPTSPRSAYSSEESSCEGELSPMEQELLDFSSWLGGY
UniProt Q99929: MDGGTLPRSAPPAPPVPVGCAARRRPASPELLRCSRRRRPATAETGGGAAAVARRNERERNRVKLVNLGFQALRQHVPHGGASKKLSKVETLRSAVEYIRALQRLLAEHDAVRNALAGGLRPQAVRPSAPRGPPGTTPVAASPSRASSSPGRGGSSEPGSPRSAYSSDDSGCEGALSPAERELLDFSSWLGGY

Legend:
[1] = molecular target: T1, endogenous HDAC7 (SW480 cells) (human (endogenous in SW480)) (UniProt Q8WUI4); assay: proximity ligation
T1 sequence: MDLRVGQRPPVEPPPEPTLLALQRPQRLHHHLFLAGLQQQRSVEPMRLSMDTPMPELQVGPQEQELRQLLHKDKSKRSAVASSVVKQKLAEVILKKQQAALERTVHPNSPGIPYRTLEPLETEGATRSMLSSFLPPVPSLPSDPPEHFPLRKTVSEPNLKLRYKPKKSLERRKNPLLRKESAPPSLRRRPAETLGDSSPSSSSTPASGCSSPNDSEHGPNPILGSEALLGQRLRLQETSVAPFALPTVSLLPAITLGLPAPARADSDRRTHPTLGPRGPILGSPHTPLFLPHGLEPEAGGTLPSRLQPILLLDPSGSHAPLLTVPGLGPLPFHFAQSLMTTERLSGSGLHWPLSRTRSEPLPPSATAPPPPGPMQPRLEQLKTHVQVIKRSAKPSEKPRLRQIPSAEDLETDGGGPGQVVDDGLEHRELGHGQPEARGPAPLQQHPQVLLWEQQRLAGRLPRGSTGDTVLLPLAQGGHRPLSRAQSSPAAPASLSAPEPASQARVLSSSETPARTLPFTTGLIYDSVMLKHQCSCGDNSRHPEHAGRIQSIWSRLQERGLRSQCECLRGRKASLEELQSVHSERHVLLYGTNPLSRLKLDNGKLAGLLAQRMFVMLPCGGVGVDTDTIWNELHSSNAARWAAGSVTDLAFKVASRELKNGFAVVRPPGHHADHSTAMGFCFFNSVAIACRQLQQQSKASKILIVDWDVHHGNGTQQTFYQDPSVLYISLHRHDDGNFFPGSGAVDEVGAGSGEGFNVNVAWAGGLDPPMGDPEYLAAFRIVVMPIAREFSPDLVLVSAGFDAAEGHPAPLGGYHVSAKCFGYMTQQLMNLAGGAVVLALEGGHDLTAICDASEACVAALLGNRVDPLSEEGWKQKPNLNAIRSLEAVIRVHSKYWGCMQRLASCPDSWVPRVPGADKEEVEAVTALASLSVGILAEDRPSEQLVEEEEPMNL

[2] = molecular target: T2, endogenous mSin3a (SW480 cells) (human (endogenous in SW480)) (UniProt Q96ST3); assay: proximity ligation
T2 sequence: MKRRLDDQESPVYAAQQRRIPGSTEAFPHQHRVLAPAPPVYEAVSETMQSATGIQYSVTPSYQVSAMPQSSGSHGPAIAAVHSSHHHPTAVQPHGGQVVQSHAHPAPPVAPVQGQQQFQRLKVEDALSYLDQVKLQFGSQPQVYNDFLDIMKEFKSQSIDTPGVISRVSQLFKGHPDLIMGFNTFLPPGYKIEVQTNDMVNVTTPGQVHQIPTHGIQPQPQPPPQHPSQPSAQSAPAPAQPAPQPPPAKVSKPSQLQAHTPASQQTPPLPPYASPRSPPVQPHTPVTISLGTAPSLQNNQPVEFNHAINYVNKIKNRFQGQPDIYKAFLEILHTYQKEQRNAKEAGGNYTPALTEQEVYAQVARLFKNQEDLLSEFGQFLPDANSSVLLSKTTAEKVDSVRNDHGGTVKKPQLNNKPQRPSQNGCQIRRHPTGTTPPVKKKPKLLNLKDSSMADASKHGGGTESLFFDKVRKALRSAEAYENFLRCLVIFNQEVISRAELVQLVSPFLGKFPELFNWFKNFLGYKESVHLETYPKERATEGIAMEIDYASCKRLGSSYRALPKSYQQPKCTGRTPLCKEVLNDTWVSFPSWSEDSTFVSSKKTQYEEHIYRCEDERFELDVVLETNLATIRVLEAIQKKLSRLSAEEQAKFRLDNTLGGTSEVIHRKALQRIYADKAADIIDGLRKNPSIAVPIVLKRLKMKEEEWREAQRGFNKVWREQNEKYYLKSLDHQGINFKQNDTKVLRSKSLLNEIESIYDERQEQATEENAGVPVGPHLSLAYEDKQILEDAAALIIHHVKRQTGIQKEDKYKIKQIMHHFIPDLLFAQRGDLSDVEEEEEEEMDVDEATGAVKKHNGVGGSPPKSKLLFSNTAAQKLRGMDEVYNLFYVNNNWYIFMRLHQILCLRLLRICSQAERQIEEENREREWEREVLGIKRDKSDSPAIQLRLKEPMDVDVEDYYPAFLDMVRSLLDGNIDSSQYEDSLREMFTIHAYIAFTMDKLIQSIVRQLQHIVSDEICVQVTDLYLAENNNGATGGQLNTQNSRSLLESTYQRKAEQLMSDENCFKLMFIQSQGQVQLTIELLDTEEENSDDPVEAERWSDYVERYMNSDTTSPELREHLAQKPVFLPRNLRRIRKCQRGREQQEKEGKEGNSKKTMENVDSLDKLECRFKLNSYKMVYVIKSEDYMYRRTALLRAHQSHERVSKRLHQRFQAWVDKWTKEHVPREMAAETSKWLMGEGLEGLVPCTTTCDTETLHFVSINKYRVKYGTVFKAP

Myc-mSin3a = molecular target: T3, Myc-mSin3a (UniProt Q60520); assay: co-IP
T3 sequence: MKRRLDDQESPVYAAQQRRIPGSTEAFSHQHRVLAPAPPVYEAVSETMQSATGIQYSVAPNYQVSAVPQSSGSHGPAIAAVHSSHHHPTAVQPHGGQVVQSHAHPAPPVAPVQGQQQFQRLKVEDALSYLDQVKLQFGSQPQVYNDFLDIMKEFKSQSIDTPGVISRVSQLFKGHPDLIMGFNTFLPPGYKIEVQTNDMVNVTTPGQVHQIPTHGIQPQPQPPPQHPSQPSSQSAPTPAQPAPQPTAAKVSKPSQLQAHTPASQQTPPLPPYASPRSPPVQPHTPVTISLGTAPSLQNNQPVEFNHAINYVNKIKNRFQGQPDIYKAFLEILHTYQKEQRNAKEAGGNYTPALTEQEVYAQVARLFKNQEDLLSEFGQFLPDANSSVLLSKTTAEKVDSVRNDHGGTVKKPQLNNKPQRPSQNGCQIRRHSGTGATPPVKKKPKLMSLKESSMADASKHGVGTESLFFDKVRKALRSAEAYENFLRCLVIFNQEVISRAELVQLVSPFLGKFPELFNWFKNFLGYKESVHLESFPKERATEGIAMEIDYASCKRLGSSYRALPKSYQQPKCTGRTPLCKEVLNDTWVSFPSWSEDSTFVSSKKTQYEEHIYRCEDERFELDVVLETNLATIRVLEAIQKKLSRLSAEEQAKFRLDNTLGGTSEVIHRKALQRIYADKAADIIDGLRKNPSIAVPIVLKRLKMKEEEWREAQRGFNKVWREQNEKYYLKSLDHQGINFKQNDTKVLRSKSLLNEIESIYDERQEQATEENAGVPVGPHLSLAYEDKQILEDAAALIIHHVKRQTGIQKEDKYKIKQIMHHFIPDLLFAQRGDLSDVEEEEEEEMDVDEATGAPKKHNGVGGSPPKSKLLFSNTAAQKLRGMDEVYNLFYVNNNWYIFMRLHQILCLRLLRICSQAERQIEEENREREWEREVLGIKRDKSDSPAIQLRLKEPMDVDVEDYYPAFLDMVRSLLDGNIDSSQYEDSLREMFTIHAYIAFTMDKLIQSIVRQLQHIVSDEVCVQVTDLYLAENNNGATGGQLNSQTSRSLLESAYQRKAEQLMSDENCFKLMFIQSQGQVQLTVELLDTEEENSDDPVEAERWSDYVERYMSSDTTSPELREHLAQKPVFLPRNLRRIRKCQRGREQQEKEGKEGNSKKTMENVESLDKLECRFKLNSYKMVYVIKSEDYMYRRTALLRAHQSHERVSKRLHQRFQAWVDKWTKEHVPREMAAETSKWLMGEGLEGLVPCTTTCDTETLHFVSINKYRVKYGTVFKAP

HDAC7-Flag = molecular target: T4, HDAC7-Flag (UniProt Q8WUI4); assay: co-IP
T4 sequence: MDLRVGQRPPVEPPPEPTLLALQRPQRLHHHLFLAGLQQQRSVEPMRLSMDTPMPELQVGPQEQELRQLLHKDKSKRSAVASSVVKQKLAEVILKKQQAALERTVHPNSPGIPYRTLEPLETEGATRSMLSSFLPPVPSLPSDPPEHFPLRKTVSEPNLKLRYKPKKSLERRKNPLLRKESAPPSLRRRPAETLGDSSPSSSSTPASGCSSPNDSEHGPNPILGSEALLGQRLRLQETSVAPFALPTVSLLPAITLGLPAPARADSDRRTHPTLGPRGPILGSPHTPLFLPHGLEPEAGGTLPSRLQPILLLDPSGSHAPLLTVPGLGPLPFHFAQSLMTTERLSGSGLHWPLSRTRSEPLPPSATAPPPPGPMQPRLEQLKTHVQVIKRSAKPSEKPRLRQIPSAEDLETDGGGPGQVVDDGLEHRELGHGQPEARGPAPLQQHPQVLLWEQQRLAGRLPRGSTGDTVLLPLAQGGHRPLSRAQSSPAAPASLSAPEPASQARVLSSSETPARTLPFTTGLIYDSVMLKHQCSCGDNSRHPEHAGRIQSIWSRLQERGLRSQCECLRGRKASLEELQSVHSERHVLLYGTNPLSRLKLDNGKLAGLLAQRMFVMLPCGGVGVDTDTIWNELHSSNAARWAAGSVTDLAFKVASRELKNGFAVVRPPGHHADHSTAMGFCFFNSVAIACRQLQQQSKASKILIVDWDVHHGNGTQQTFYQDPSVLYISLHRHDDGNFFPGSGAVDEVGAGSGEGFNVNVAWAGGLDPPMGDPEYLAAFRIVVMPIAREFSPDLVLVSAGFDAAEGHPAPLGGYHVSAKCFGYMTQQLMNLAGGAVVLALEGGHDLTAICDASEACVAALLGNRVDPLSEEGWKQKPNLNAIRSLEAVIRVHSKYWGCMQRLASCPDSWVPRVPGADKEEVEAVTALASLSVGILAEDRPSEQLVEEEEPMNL

[3] = molecular target: murine Ascl2 fused to turbo-GFP (mouse) (UniProt O35885); assay: pull-down
[4] = molecular target: murine Ascl2 fused to turbo-GFP (mouse) (UniProt O35885); assay: co-IP
[5] = molecular target: T2, endogenous mSin3a (SW480 cells) (human (endogenous in SW480)); assay: co-IP

With “endogenous Ascl2 (SW480 cells) (from UniProt Q99929 1-193)” the binding [1] was “binds” and the binding [2] was “binds”.

With “murine Ascl2 fused to turbo-GFP (from UniProt O35885 1-263)” the binding (Myc-mSin3a) was “binds” and the binding (HDAC7-Flag) was “binds”.

B1: Myc-tagged p57^Kip2 (protein, UniProt P49919 1-348)
chain: MGMSDVYLRSRTAMERLASSDTFPVIARSSACRSLFGPVDHEELGRELRMRLAELNAEDQNRWDFNFQQDVPLRGPGRLQWMEVDSESVPAFYRETVQVGRCRLQLGPRPPPVAVAVIPRSGPPAGEAPDGLEEAPEQPPSAPASAVVAEPTPPATPAPASDLTSDPIPEVTLVATSDPTPDPIPDANPDVATRDGEEQVPEQVSEQGEESGAEPGDELGTEPVSEQGEEQGAEPVEEKDEEPEEEQGAEPVEEQGAEPVEEQNGEPVEEQDENQEQRGQELKDQPLSGIPGRPAPGTAAANANDFFAKRKRTAQENKASNDVPPGCPSPNVAPGVGAVEQTPRKRLR
B1 was tested, and the binding [3] was “binds” and the binding [4] was “binds”.

B2: endogenous HDAC7 (SW480 cells) (enzyme, UniProt Q8WUI4 1-952)
chain: MDLRVGQRPPVEPPPEPTLLALQRPQRLHHHLFLAGLQQQRSVEPMRLSMDTPMPELQVGPQEQELRQLLHKDKSKRSAVASSVVKQKLAEVILKKQQAALERTVHPNSPGIPYRTLEPLETEGATRSMLSSFLPPVPSLPSDPPEHFPLRKTVSEPNLKLRYKPKKSLERRKNPLLRKESAPPSLRRRPAETLGDSSPSSSSTPASGCSSPNDSEHGPNPILGSEALLGQRLRLQETSVAPFALPTVSLLPAITLGLPAPARADSDRRTHPTLGPRGPILGSPHTPLFLPHGLEPEAGGTLPSRLQPILLLDPSGSHAPLLTVPGLGPLPFHFAQSLMTTERLSGSGLHWPLSRTRSEPLPPSATAPPPPGPMQPRLEQLKTHVQVIKRSAKPSEKPRLRQIPSAEDLETDGGGPGQVVDDGLEHRELGHGQPEARGPAPLQQHPQVLLWEQQRLAGRLPRGSTGDTVLLPLAQGGHRPLSRAQSSPAAPASLSAPEPASQARVLSSSETPARTLPFTTGLIYDSVMLKHQCSCGDNSRHPEHAGRIQSIWSRLQERGLRSQCECLRGRKASLEELQSVHSERHVLLYGTNPLSRLKLDNGKLAGLLAQRMFVMLPCGGVGVDTDTIWNELHSSNAARWAAGSVTDLAFKVASRELKNGFAVVRPPGHHADHSTAMGFCFFNSVAIACRQLQQQSKASKILIVDWDVHHGNGTQQTFYQDPSVLYISLHRHDDGNFFPGSGAVDEVGAGSGEGFNVNVAWAGGLDPPMGDPEYLAAFRIVVMPIAREFSPDLVLVSAGFDAAEGHPAPLGGYHVSAKCFGYMTQQLMNLAGGAVVLALEGGHDLTAICDASEACVAALLGNRVDPLSEEGWKQKPNLNAIRSLEAVIRVHSKYWGCMQRLASCPDSWVPRVPGADKEEVEAVTALASLSVGILAEDRPSEQLVEEEEPMNL
B2 was tested, and the binding [5] was “binds”.
